From article PMC7819943, “Rice protein-binding microarrays: a tool to detect cis-acting elements near promoter regions in rice”
Some of the results follow.

By UniProt entry, the sequences of proteins in these tests, tags left out.
UniProt Q0JBA9, entry or part of it: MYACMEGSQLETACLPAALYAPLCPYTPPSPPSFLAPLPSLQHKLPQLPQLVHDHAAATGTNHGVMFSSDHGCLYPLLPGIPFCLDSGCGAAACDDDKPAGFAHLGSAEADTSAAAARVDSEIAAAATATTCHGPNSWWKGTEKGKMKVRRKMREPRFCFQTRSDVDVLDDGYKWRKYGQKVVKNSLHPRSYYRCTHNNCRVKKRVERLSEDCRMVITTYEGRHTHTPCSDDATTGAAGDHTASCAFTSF

target: OsWRKY34 (Oryza sativa, UniProt Q0JBA9 1-250); assay: protein-binding microarray (RPBM); PBS, 2% BSA, 51.3 ng/ul salmon testes DNA, 50 uM zinc acetate, 200 nM TF, 25 C, 1 h; high values mean tight binding; settings: protein: recombinant; tags: N-terminal polyhistidine and DsRed monomer fusion (pET32a); label: CyDye5-dUTP incorporated in the synthesized complementary strand; 3' TTTTT single-stranded linker to array surface; dsDNA, one strand shown
Summary of the method: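 Ni–NTA purification followed expression in E. coli BL21-CodonPlus of transcription factors fused N-terminally to a polyhistidine tag and DsRed. At 200 nM in PBS with 2% BSA, salmon testes DNA and 50 µM zinc acetate, the protein was incubated for 1 h at 25 °C with a custom Agilent array that had been primer-extended with Cy5-dUTP and blocked with 2% BSA. After washing, the array was read on an Axon 4000B scanner. The binding signal is per-feature fluorescence intensity in arbitrary units.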

Sequence	binding signal
CATCACTGGGTTCTTGATTTGTTTCGAGATCTTTTGTTTGCGGAGTCACCTAGTGCAG	8100 fluorescence intensity (a.u.)
TTTTCGCATCACTGTCCTCTCTCATCTAAACCCTAGCCACCGGAGTCACCTAGTGCAG	8120 fluorescence intensity (a.u.)
TTTTTCTGTGTCGCAATCTCTTCTTCCTCCTGTGTATTATCGGAGTCACCTAGTGCAG	9400 fluorescence intensity (a.u.)
GACCATTCCTATGTTTTTTCATGTGTTTTGCAATCCTTTGCGGAGTCACCTAGTGCAG	9870 fluorescence intensity (a.u.)
TTGTATTCATTTGGCTGCCATGAGGGACCTTTTGCCATTTCGGAGTCACCTAGTGCAG	9420 fluorescence intensity (a.u.)
TGTCACTCACGTGAGTTGACCGTGTGTTGACTGTTGCTAGCGGAGTCACCTAGTGCAG	10800 fluorescence intensity (a.u.)
GGACCTTATGCTGTGTGTTATGAAAATTTCTTCAGTGACTCGGAGTCACCTAGTGCAG	9490 fluorescence intensity (a.u.)
GCTCGTTCCTCCAACGATCTTGCCTGGCCACATTCGCCATCGGAGTCACCTAGTGCAG	8290 fluorescence intensity (a.u.)
TCATATTCCGTTTCAGCTTCTTCTTCAAGCTTGGCACATTCGGAGTCACCTAGTGCAG	8450 fluorescence intensity (a.u.)
CCACACACGCCTCTCCCCACCAACGGCAACCCATCGCGTCCGGAGTCACCTAGTGCAG	8100 fluorescence intensity (a.u.)
TCATGTGTCTTACTTGGTCCCACCATTTTCCACATACTCTCGGAGTCACCTAGTGCAG	8570 fluorescence intensity (a.u.)
TGGATCTCATCTCGCTATCTATCTTAGCTTTGCTTGCAACCGGAGTCACCTAGTGCAG	11500 fluorescence intensity (a.u.)
CCACTCAATCCCAGATCCGAATCCCACCTCTCCGTCTCATCGGAGTCACCTAGTGCAG	9510 fluorescence intensity (a.u.)
GTGGTATATTTCTTCTTTGATGGGACCTGGCTTATTTCTCCGGAGTCACCTAGTGCAG	9020 fluorescence intensity (a.u.)
TCTCTCTCTCTCTCTCTCTCTCTCTCTCTCTCTCTCTTCTCGGAGTCACCTAGTGCAG	10600 fluorescence intensity (a.u.)
TCTTGTATTCTCCACTAGTCTTGGGTCATCCATTCTTCAGCGGAGTCACCTAGTGCAG	8550 fluorescence intensity (a.u.)
TTTATATCATCTGGATGGGAGGGTTCTGCAACTGATGCTACGGAGTCACCTAGTGCAG	8810 fluorescence intensity (a.u.)
GTTTCACCTGCCACGCCAGCCGAACTCCCTCTCACGCTTTCGGAGTCACCTAGTGCAG	10300 fluorescence intensity (a.u.)
CCGCCTCGAGCGCACCCTCTCTCCTGCTCGTTGTGCCGTTCGGAGTCACCTAGTGCAG	8030 fluorescence intensity (a.u.)
GTAGTTGTGTGTATGGGTGTTTCCTTCTCTTCTTTCTCTTCGGAGTCACCTAGTGCAG	9910 fluorescence intensity (a.u.)
ATTTTATTGTTGCGGTTGCCAATCAACAACGACGTCATTTCGGAGTCACCTAGTGCAG	9550 fluorescence intensity (a.u.)
TCCCCGTCTATCCATGCTCCCGCTCCACTTGCGCCCCACACGGAGTCACCTAGTGCAG	9840 fluorescence intensity (a.u.)
CCGCCGCCGCCGCCACTCCTCGATTTTTCTCCCGCAACTCCGGAGTCACCTAGTGCAG	8610 fluorescence intensity (a.u.)

Reprinted at random: two records from the list.
Sequence	binding signal
GACCATTCCTATGTTTTTTCATGTGTTTTGCAATCCTTTGCGGAGTCACCTAGTGCAG	9870 fluorescence intensity (a.u.)
GTGGTATATTTCTTCTTTGATGGGACCTGGCTTATTTCTCCGGAGTCACCTAGTGCAG	9020 fluorescence intensity (a.u.)
